Results reported in PubChem BioAssay AID901 (National Center for Advancing Translational Sciences (NCATS), 2007).
The other results are listed elsewhere or left out. Further columns of the screen follow, without active or inactive calls. Compounds called inactive in the main read-out are mostly missing here. Potencies come from curve fits of mixed quality, noted in brackets.

Assay: qHTS Assay for Identifying the Cell-Membrane Permeable IMPase Inhibitors
Conditions: CHO-M1 cells, IP1 accumulation, HTRF TR-FRET ratio; measured here: donor channel 620 nm AC50
Excerpt: NCGC IMPase Assay Overview
Lithium has been widely used for the treatment of bipolar disorder. But lithium has a narrow therapeutic index and it can cause side effects such as thirst, weight gain, tremor, polyuria and memory problems. Although the mechanism for lithium action in treatment of bipolar disorder is still not fully understood, inhibition of inositol monophosphatase (IMPase) and the subsequent depletion of the inositol pool in living cells have been implicated as the primary therapeutic benefit of lithium therapy. Therefore, a selective IMPase inhibitor with reduced side effects might be a good drug candidate to replace lithium for the treatment of bipolar disorder. Several IMPase inhibitors have been discovered previously. However, they are not suitable for therapeutic use because of their poor cell membrane penetrability or oral bioavailability; the development of new cell-permeable IMPase inhibitors is needed.
IMPase catalyzes the hydrolysis of inositol-1-phosphate (IP1) to release free inositol. Binding of an agonist to a Gq coupled GPCR results in the activation of PLC, which hydrolyzes the PIP2 to form inositol-1,4,5-trisphosphate (IP3) and diacyl glycerol (DAG). While DAG activates protein kinase C (PKC), IP3 triggers the elevation of intracellular free Ca2+. The IP3 is very rapidly inactivated by hydrolysis to IP2, IP1 and then inositol by a series of enzymes including IMPase. Free inositols are used for synthesis of PI and thus start another inositol cycle.
To identify new cell-permeable IMPase inhibitors, we developed a cell-based IMPase assay in which the cytosolic IP1 is measured by a time-resolved fluorescence resonance energy transfer (TR-FRET) assay. In this assay, an IP1 specific antibody is used to detect the labeled IP1 tracer. When the cell lysate contains the elevated IP1 due to the inhibition of IMPase, the TR-FRET between the labeled antibody and IP1 tracer is disrupted resulting in a reduction in the total signal. Since the TR-FRET is used, this cell-based assay is a homogenous assay without cell wash and medium change that is suitable for assay miniaturization and HTS.
NCGC IMPase Assay Protocol Summary
A Chinese hamster ovary (CHO) cell line stably expressing the M1 receptor (CHO-M1) was obtained from ATCC and maintained in F-12 Kaighn's media (Invitrogen, Carlsbad, CA, 21127) supplemented with 10 % FBS, 100 units/ml penicillin, 100 ug/ml streptomycin and 250 ug/ml geneticin at 37C, 5% CO2 in a humidified atmosphere. Before the assay, aliquots of cells were frozen and stored at -135C. The assay was performed in 1536-well format. Data are reported for both the ratio of the two emission wavelengths, and also for the component 'donor' channel, Em2=620. […] AC50 values were determined from concentration-response data modeled with the standard Hill equation.
IMPase 1536-well assay protocol:
(1) Plate 4 ul/well (2000 cells) of cell suspension from frozen CHO-M1 Cells in white, tissue culture treated 1536-well plates that are cultured at 37C, 5 % CO2 for 16 to 30 hours.
(2) Add 23 nl/well of compound in DMSO solution. The final titration for each compound was between 0.6 nM and 46 uM.
(3) Add 1 ul of carbachol (50 uM in stimulation buffer containing10mM HEPES, 1mM CaCl2, 0.5 mM MgCl2, 4.2 mM KCl, 146 mM NaCl, 5.5 mM glucose, 50mM LiCl, pH 7.4.
(4) Incubation at 37C, 5 % CO2 for 30 min.
(5) Add 1 ul/well of d2-conjugated IP1 (d2-IP1) and 1 ul/well of Eu+ cryptate conjugated anti-IP1 antibody (Eu+-Ab) prepared in the cell lysis buffer, both from the IP-One kit (Cisbio, MA).
(6) Incubate at room temperature for 10 minutes.
(7) Detect the assay plate (Ex = 320, Em1 =665 and Em2 620) in a ViewLux plate reader.
inositol monophosphatase, IMPase, IMPase inhibitor, lithium, bipolar disorder, IP-One, HTRF, qHTS, NIH roadmap, NCGC
Note: In the gene ID and protein GI references for this assay, rat IMPase is referenced instead of hampster as hamster accession numbers were not available.

Structure (SMILES)	AC50
CC1=C(C#N)C(NC(=O)c2ccco2)(C(F)(F)F)C(=O)N1 (stereo unspecified)	1.58 µM [falling, partial curve, poor fit]
Cc1cc(C)nc(NS(=O)(=O)c2ccc(N/C=C3\CCCC3=O)cc2)n1	0.0251 µM [falling, full curve, poor fit]
CCOC1(OCC)N=C(N)C2(C#N)C(c3ccc(NC(C)=O)cc3)C12C#N (stereo unspecified)	0.794 µM [rising, single point]
C=CCNC(=O)/C(C#N)=C/c1cn(-c2ccccc2)nc1-c1ccc(OC)c([N+](=O)[O-])c1	3.98 µM [rising, partial curve]
Cc1cc(C)n(CCc2nc(-c3cccs3)cs2)n1	5.01 µM [falling, partial curve]
COc1cc(C2=NOC(C(=O)Nc3ccc(C)cc3)C2)cc(OC)c1OC (stereo unspecified)	3.16 µM [rising, full curve]
CCOC(=O)C1CCCN(C(=O)CCNS(=O)(=O)c2ccc3c(c2)CCC(=O)N3)C1 (stereo unspecified)	3.98 µM [rising, full curve, poor fit]
COc1ccc(-n2c(SCC(=O)NCCC(C)C)nc3ccsc3c2=O)cc1	0.0316 µM [rising, partial curve, poor fit]
Cc1ccc(-c2c3c(=O)n(C)c(=O)n(C)c3c3cnc4ccccc4n23)cc1	12.6 µM [falling, partial curve]
Clc1ccc(Cn2cccc2C2=NCCO2)cc1	31.6 µM [falling, single point]
Cc1ccc(-c2nnc(SCC(=O)NCc3ccccc3)o2)cc1	35.5 µM [rising, single point]
CCOC(=O)C1C2C=CC3(CN(Cc4cccs4)C(=O)C13)O2 (stereo unspecified)	7.94 µM [falling, partial curve, poor fit]
O=C(COc1ccccc1)c1cn(CC(=O)N2CCOCC2)c2ccccc12	6.31 µM [rising, single point]
COc1ccc(-c2nc3c(=O)n(C)c(=O)[nH]c3n2CCc2ccccc2)cc1	0.0126 µM [falling, full curve, poor fit]
CNC(=O)CSc1nnc(-c2ccco2)n1-c1ccccc1OC	0.00398 µM [falling, full curve, poor fit]
O=C(Nc1ccc(CCC(=O)N2CCCC2)cc1)c1ncn[nH]1	0.158 µM [rising, full curve, poor fit]
CC1=C(C#N)C(NC(=O)c2ccccc2)(C(F)(F)F)C(=O)N1 (stereo unspecified)	0.282 µM [falling, full curve, poor fit]
NS(=O)(=O)c1ccc(N2N=C(c3ccc(Br)cc3)CC2c2ccc(F)cc2)cc1 (stereo unspecified)	11.2 µM [rising, single point]
CN1C2CCC1/C(=C\c1ccccc1Cl)C(=O)/C2=C\c1ccccc1Cl	5.62 µM [falling, partial curve, poor fit]
Cc1ccnc(NS(=O)(=O)c2ccc(NC(=O)c3ccc(C)c(C)c3)cc2)n1	2.24 µM [falling, partial curve]
Cc1ccc(-c2n[nH]c(=S)n2/N=C/C=C\c2ccccc2[N+](=O)[O-])cc1	12.6 µM [falling, partial curve]
NC1=NC2(CCCCC2)N(c2ccc(F)cc2)C(N)=N1	1 µM [falling, full curve]

An excerpt from above in order of molar mass, descending:
Structure (SMILES)	AC50
O=C(COc1ccccc1)c1cn(CC(=O)N2CCOCC2)c2ccccc12	6.31 µM [rising, single point]
Cc1ccc(-c2c3c(=O)n(C)c(=O)n(C)c3c3cnc4ccccc4n23)cc1	12.6 µM [falling, partial curve]
CCOC1(OCC)N=C(N)C2(C#N)C(c3ccc(NC(C)=O)cc3)C12C#N (stereo unspecified)	0.794 µM [rising, single point]
Cc1ccc(-c2n[nH]c(=S)n2/N=C/C=C\c2ccccc2[N+](=O)[O-])cc1	12.6 µM [falling, partial curve]

More compounds.

Structure (SMILES)	AC50
OC(COc1ccc2ccccc2c1)Cn1cncn1 (stereo unspecified)	6.31 µM [rising, single point]
O=C(O)c1cc(NC(=O)C2CCCO2)cc(NC(=O)C2CCCO2)c1 (stereo unspecified)	0.0224 µM [falling, full curve, poor fit]
CCN(CCCNC(=O)CNC(=O)Cn1cnc2ccccc2c1=O)c1cccc(C)c1	0.112 µM [falling, full curve]
COC(=O)c1ccc(Cn2cnc3c(cnn3-c3ccc(F)cc3)c2=O)o1	6.31 µM [rising, partial curve]
CCOC(=O)c1sc(NC(=O)c2ccc3ncsc3c2)nc1C	31.6 µM [rising, single point]
Cc1ccc2nc(N3C(=O)C(O)=C(C(=O)c4cc5ccccc5o4)C3c3cccs3)sc2c1 (stereo unspecified)	12.6 µM [rising, partial curve]
Cc1cc(C)c2nc(NC3=NCN(CCN4CCOCC4)CN3)nc(C)c2c1	0.0251 µM [rising, full curve, poor fit]
CCCCCCCc1nc2c(=O)n(C)c3ccccc3c2o1	31.6 µM [rising, single point]
O=C(Nc1sc2c(c1C(=O)NC1CCCCC1)CCC2)c1ccco1	31.6 µM [falling, single point]
N#Cc1c(-c2ccco2)nc(SCC(=O)Nc2cccc(Cl)c2)[nH]c1=O	12.6 µM [rising, partial curve]
Cc1ccc(N=C2NC(=O)C(CC(=O)O)S2)cc1 (stereo unspecified)	3.98 µM [falling, single point]
CN1C=CC=C/C1=C(\C#N)c1nc2ccccc2[nH]1	12.6 µM [falling, partial curve]
CC(C)CC(O)(CC(C)C)C(=O)NNc1ccccc1	3.16 µM [falling, single point]
CCc1ccc(NC(=O)COc2ccc(F)cc2C(=O)c2cnn(-c3ccccc3)c2)cc1	20 µM [rising, single point]
Cc1cc(C)n(CC(O)Cn2cnc3c2c(=O)n(C)c(=O)n3C)n1 (stereo unspecified)	0.0501 µM [rising, full curve, poor fit]
CCOC(=O)c1nn(-c2ccccc2)c(C#N)c1NC(=O)c1nn(CC)cc1Br	3.55 µM [rising, single point]
CC(=O)c1sc(Nc2nc3ccc(F)cc3s2)nc1C	2.51 µM [rising, partial curve, poor fit]
COc1cc(OC)cc(-c2nc3ccccc3c(=O)o2)c1	12.6 µM [falling, single point]
O=C(CSc1nnc(Cc2cccs2)n1Cc1ccco1)Nc1cc(Cl)cc(Cl)c1	1 µM [rising, full curve, poor fit]
N#CC(=C1CCCC1)c1nc(-c2ccccc2O)cs1	10 µM [falling, partial curve]
CC1CCc2nn(CC(=O)NCCN3CCCCC3C)cc2C1 (stereo unspecified)	1.26 µM [falling, full curve, poor fit]
CCn1c(Cc2ccccc2)nnc1SCC(=O)Nc1nc2ccccc2s1	31.6 µM [rising, single point]

Structure (SMILES)	AC50
COc1ccc(OC)c2c(N3CC(C)OC(C)C3)cc(C(F)(F)F)nc12 (stereo unspecified)	3.16 µM [falling, full curve, poor fit]
CCN1CCN(Cc2c(O)ccc3c(=O)c(-c4ccc(OC)c(OC)c4)c(C(F)(F)F)oc23)CC1	0.316 µM [rising, full curve, poor fit]
O=C1SC(SCc2ccccc2)=N/C1=C\c1ccco1	0.794 µM [falling, single point]
CC1CCN(C(=O)Cn2c(SCC(=O)Nc3nccs3)nc3ccccc32)CC1	0.02 µM [falling, full curve, poor fit]
Cn1c(=O)[nH]c(=O)c2[nH]c(N(Cc3ccccc3)Cc3ccccc3)nc21	0.0447 µM [falling, full curve]
COCCNC(=O)NC1(C(F)(F)F)Oc2ccc(Cl)cc2O1 (stereo unspecified)	0.0501 µM [falling, full curve, poor fit]
O=C(NCc1cccs1)c1cc(C2CC2)on1	0.447 µM [falling, full curve, poor fit]
CC(=O)c1c(C)nc(C)nc1NC(=O)Cc1ccccc1	0.01 µM [falling, full curve, poor fit]
COc1cccc(C(=O)CN2CCC(NC(=O)NC3CCCCC3)CC2)c1	4.47 µM [falling, full curve, poor fit]
CC(C)c1cc(C(=O)Nc2cc(Cl)ccc2O)no1	0.316 µM [falling, full curve, poor fit]
Nc1c(C(=O)Nc2ccccc2)sc2nc3c(c(-c4ccco4)c12)CCC3	0.0316 µM [rising, full curve, poor fit]
N#CC(=C=[N-])C1=C(C#N)C(c2ccccc2F)C([n+]2ccccc2)C(O)(C2CC2)N1 (stereo unspecified)	15.8 µM [rising, single point]
O=C(NC1CCCC1)C1CCCN(S(=O)(=O)c2cccc3cccnc23)C1 (stereo unspecified)	35.5 µM [falling, single point]
CCCOC1(NC(=O)c2ccccc2)C(C)=CC(=O)C=C1C	39.8 µM [falling, partial curve, poor fit]
O=C(NCCN1CCOCC1)C1CC(=O)N(c2ccc(F)c(Cl)c2)C1 (stereo unspecified)	0.00398 µM [falling, full curve, poor fit]
Cc1ccc(C(C(=O)NC2CCCCC2)N2CCCC2)cc1 (stereo unspecified)	3.16 µM [falling, single point]
Nc1ccc2c(c1)C(=O)C(=O)c1ccccc1-2	12.6 µM [falling, partial curve]
COc1ccc(OC)c(S(=O)(=O)Nc2cc(OC)c(Cl)cc2OC)c1	0.0141 µM [falling, full curve, poor fit]
CCOC(=O)c1cccnc1SCC(=O)NC(C)CC (stereo unspecified)	1 µM [falling, full curve]
CCC1CCc2sc(C(=O)O)cc2C1 (stereo unspecified)	0.00794 µM [rising, full curve, poor fit]
Cc1nc(N(C)C)c2sc(=S)n(C)c2n1	31.6 µM [rising, single point]
COc1ccc(S(=O)(=O)Nc2cccc(N(C)S(C)(=O)=O)c2)cc1Br	0.0316 µM [falling, full curve, poor fit]
